# The supplement of paper PMC6331611
# Where “and” joins values, the source holds several entries; their conditions need not be identical. Identical values can stand only once. ± gives the standard deviation of the averaged measurements. In all, about 1,600 compounds were measured (“normalized intracellular growth (luminescence, IQM-normalized) in RAW264.7 macrophages”: median about 1, lowest 2% from about 0.43 on). The list shows a part of the results.
# Tested on: Salmonella enterica serovar Typhimurium SL1344
# Experiment: normalized intracellular growth (luminescence, IQM-normalized) in RAW264.7 macrophages (fraction of plate interquartile mean); higher = more bacterial growth (less inhibition)
# Conditions: 10 µM
Compound,normalized intracellular growth (time point: T3 (3 h)),normalized intracellular growth (time point: Tfinal (~6 h))
N[C@H]1C(O)O[C@H](CO)[C@@H](O)[C@@H]1O (stereo not given in full),0.967 ± 0.045,0.999 ± 0.058
OCCN1CCN(CCCN2c3ccccc3Sc3ccc(Cl)cc32)CC1,0.875 ± 0.13,0.88 ± 0.038
CN(C)CCc1c[nH]c2ccc(Cn3cncn3)cc12,1.01 ± 0.055,1.18 ± 0.16
Nc1ccc(S(=O)(=O)c2ccc(N)cc2)cc1,1.01 ± 0.04,0.866 ± 0.025
N=C(N)NCC1COC2(CCCCC2)O1 (stereo not given),0.997 ± 0.04,1.02 ± 0.062
CC1(C)OC(=O)NC1=O,0.974 ± 0.074,1.1 ± 0.072
Nc1ccc(C(=O)NCC(=O)O)cc1,0.983 ± 0.071,1 ± 0.011
COc1ccc(NS(=O)(=O)c2ccc(N)cc2)nn1,0.994 ± 0.058,1.01 ± 0.052
CCC[C@H](N[C@@H](C)C(=O)N1[C@H](C(=O)O)C[C@@H]2CCCC[C@@H]21)C(=O)OCC,0.911 ± 0.034,1.24 ± 0.037
Cn1nnnc1SCC1=C(C(=O)O)N2C(=O)[C@@H](NC(=O)[C@H](O)c3ccccc3)[C@H]2SC1,1.08 ± 0.041,1.02 ± 0.17
O=C(CCCN1CC=C(n2c(=O)[nH]c3ccccc32)CC1)c1ccc(F)cc1,1.17 ± 0.055,1.18 ± 0.031
CCN(CC)CCNC(=O)c1cc(S(C)(=O)=O)ccc1OC,1.08 ± 0.043,1.08 ± 0.087
Oc1c(I)cc(I)c2cccnc12,1.02 ± 0.046,0.913 ± 0.041
C#CCN(C)Cc1ccccc1,1.07 ± 0.045,1.01 ± 0.13
CCn1cc(C(=O)O)c(=O)c2ccc(C)nc21,0.994 ± 0.03,0.881 ± 0.37
C[C@H]1[C@@H](O)O[C@@H]2O[C@@]3(C)CC[C@H]4[C@H](C)CC[C@@H]1[C@@]24OO3,0.988 ± 0.069,0.686 ± 0.071
CCCCCC(C)N (stereo not given),0.993 ± 0.077,0.979 ± 0.12
COc1ccc2cc(CCC(C)=O)ccc2c1,1.01 ± 0.033,1.11 ± 0.12
O=C(O)CCC(=O)OC[C@@H](NC(=O)C(Cl)Cl)[C@H](O)c1ccc([N+](=O)[O-])cc1,0.927 ± 0.048,0.178 ± 0.014
CC(=O)N[C@@H](CC(=O)N[C@@H](CCC(=O)O)C(=O)O)C(=O)O,0.983 ± 0.061,0.998 ± 0.13
Cc1ccc(S(=O)(=O)NC(=O)NN2CC3CCCC3C2)cc1 (stereo not given),0.969 ± 0.056,1.06 ± 0.012
CCn1cc(C(=O)O)c(=O)c2cnc(N3CCNCC3)nc21,0.974 ± 0.034,0.533 ± 0.082
COc1cc2nc(N3CCN(C(=O)c4ccco4)CC3)nc(N)c2cc1OC,0.919 ± 0.12,0.917 ± 0.062

Compound,normalized intracellular growth (time point: T3 (3 h)),normalized intracellular growth (time point: Tfinal (~6 h))
NCCS(=O)(=O)O,0.941 ± 0.044,1.04 ± 0.13
C=CC[C@@H]1/C=C(\C)C[C@H](C)C[C@H](OC)[C@H]2O[C@@](O)(C(=O)C(=O)N3CCCC[C@H]3C(=O)O[C@H](/C(C)=C/[C@@H]3CC[C@@H](O)[C@H](OC)C3)[C@H](C)[C@@H](O)CC1=O)[C@H](C)C[C@@H]2OC,0.931 ± 0.044,0.915 ± 0.27
NC[C@H]1O[C@H](O[C@H]2[C@H](O[C@@H]3O[C@H](CO)[C@@H](O)[C@H]3O)[C@@H](O)[C@H](N)C[C@@H]2N)[C@H](N)[C@@H](O)[C@@H]1O,1 ± 0.076,1.11 ± 0.17
CCN(Cc1ccncc1)C(=O)C(CO)c1ccccc1 (stereo not given),0.97 ± 0.059,1.03 ± 0.12
OC(CCN1CCCCC1)(c1ccccc1)C1CC2C=CC1C2 (stereo not given),1.09 ± 0.043,0.844 ± 0.14
CCN(CC)CC#CCOC(=O)C(O)(c1ccccc1)C1CCCCC1 (stereo not given),1.09 ± 0.034,1.13 ± 0.044
CN1C2CCCC1CC(NC(=O)c1nn(C)c3ccccc13)C2 (stereo not given),1.14 ± 0.036,0.935 ± 0.11
CC(C)N1CCN(c2ccc(OCC3COC(Cn4cncn4)(c4ccc(Cl)cc4Cl)O3)cc2)CC1 (stereo not given),1.02 ± 0.043,1.13 ± 0.095
CCCCC(=O)O[C@]1(C(=O)CO)CC[C@H]2[C@@H]3CCC4=CC(=O)CC[C@]4(C)[C@H]3[C@@H](O)C[C@@]21C,1.09 ± 0.043,1.11 ± 0.039
Cc1noc(NS(=O)(=O)c2ccc(N)cc2)c1C,1.13 ± 0.019,1.11 ± 0.033
CCc1cccc2c3c([nH]c12)C(CC)(CC(=O)O)OCC3 (stereo not given),0.97 ± 0.043,0.968 ± 0.028
CC1=C(CC(=O)O)c2cc(F)ccc2/C1=C\c1ccc([S+](C)[O-])cc1 (stereo not given),1.05 ± 0.11,1.05 ± 0.07
CC(Oc1c(Cl)cccc1Cl)C1=NCCN1 (stereo not given),1.01 ± 0.057,1.01 ± 0.069
CO/N=C(\C(=O)N[C@@H]1C(=O)N2C(C(=O)O)=C(C[N+]3(C)CCCC3)CS[C@H]12)c1csc(N)n1,1.01 ± 0.054,0.0358 ± 0.0021
CCOC(=O)[C@H](CCc1ccccc1)N[C@@H](C)C(=O)N1CCC[C@H]1C(=O)O,1.03 ± 0.029,0.918 ± 0.36
Cn1nnnc1SCC1=C(C(=O)O)N2C(=O)[C@@H](NC(=O)[C@H](OC=O)c3ccccc3)[C@H]2SC1,0.866 ± 0.094,0.979 ± 0.024
CC(=O)Nc1ccc(O)cc1,1.06 ± 0.021,1.09 ± 0.045
O=S(=O)(O)CCCS(=O)(=O)O,1.01 ± 0.095,0.9 ± 0.34
COc1ccc2[nH]c([S+]([O-])Cc3ncc(C)c(OC)c3C)nc2c1 (stereo not given),1.06 ± 0.07,0.977 ± 0.23
CCCCC(CC)CN=C(N)N=C(N)NCCCCCCNC(N)=NC(N)=NCC(CC)CCCC (stereo not given),0.994 ± 0.063,1.1 ± 0.035
Cc1ccccc1N1C(=O)c2cc(S(N)(=O)=O)c(Cl)cc2NC1C (stereo not given),0.999 ± 0.076,1.22 ± 0.059
Cc1cc(-n2c(=O)[nH]c(=O)n(C)c2=O)ccc1Oc1ccc(SC(F)(F)F)cc1,1.05 ± 0.071,0.715 ± 0.13
CC(C)COC(=O)c1ccc(N)cc1,1.01 ± 0.068,0.971 ± 0.071

Compound,normalized intracellular growth (time point: T3 (3 h)),normalized intracellular growth (time point: Tfinal (~6 h))
OCCOCCN1CCN(C(c2ccccc2)c2ccc(Cl)cc2)CC1 (stereo not given),1.01 ± 0.06,1.02 ± 0.024
Nc1cc(-c2ccncc2)c[nH]c1=O,0.998 ± 0.044,0.977 ± 0.12
COC(=O)C(N)CS (stereo not given),1.05 ± 0.053,0.788 ± 0.092
CC(N)C12CC3CC(CC(C3)C1)C2 (stereo not given),1.05 ± 0.013,0.989 ± 0.13
CN(C)CC[C@@H](c1ccc(Cl)cc1)c1ccccn1,1 and 1.05,1.01 and 0.736
CN(CCOc1ccc(CC2SC(=O)NC2=O)cc1)c1ccccn1 (stereo not given),0.993 ± 0.055,0.982 ± 0.025
CCCc1nc(C(C)(C)O)c(C(=O)O)n1Cc1ccc(-c2ccccc2-c2nnn[nH]2)cc1,1.027 ± 0.0089,1.118 ± 0.0057
O=C(OCc1ccccc1)c1ccccc1,0.966 ± 0.057,0.928 ± 0.069
OC(CCN1CCCCC1)(c1ccccc1)C1CCCCC1 (stereo not given),0.817 ± 0.033,0.993 ± 0.087
Cc1ccc2c(Cl)cc(Cl)c(O)c2n1,0.97 ± 0.027,1.07 ± 0.15
N=C(N)N/N=C/c1c(Cl)cccc1Cl,0.985 ± 0.086,1.09 ± 0.055
CN(C)CCOC(=O)COc1ccc(Cl)cc1,0.996 ± 0.047,1.04 ± 0.14
CC(Oc1ccccc1)C(=O)N[C@@H]1C(=O)N2[C@@H]1SC(C)(C)[C@@H]2C(=O)O (stereo not given in full),1.23 ± 0.12,1.16 ± 0.066
COc1ccc(-c2cc(C(F)F)nn2-c2ccc(S(N)(=O)=O)cc2)cc1F,1.01 ± 0.069,0.754 ± 0.11
OC[C@H]1O[C@@H](O[C@@H]2[C@@H](CO)OC(O)(CO)[C@H]2O)[C@H](O)[C@@H](O)[C@H]1O (mixture of isomers),0.999 ± 0.021,0.958 ± 0.011
N[C@@H](C(=O)N[C@@H]1C(=O)N2C(C(=O)O)=C(Cl)CS[C@H]12)c1ccccc1,1.03 ± 0.054,1.08 ± 0.021
COc1ccc(C(=O)NCc2ccc(OCCN(C)C)cc2)cc1OC,1.03 ± 0.047,1.16 ± 0.094
NC(N)=O,0.844 ± 0.083,0.891 ± 0.085
Cn1c([N+](=O)[O-])cnc1COC(N)=O,1.1 ± 0.072,1.16 ± 0.34
CN(C)[C@@H]1C(O)=C(C(N)=O)C(=O)[C@@]2(O)C(O)=C3C(=O)c4c(O)ccc(Cl)c4[C@@H](O)[C@H]3C[C@@H]12,0.727 ± 0.11,0.176 ± 0.0084
O=S(=O)(O)CCS,1.09 ± 0.031,1.17 ± 0.14
CCn1cc(C(=O)O)c(=O)c2cnc(N3CCCC3)nc21,0.929 ± 0.0075,1.04 ± 0.053
CCCCCCCCCCCCC[N+](C)(C)Cc1ccccc1,1.07 ± 0.048,0.634 ± 0.26

Compound,normalized intracellular growth (time point: T3 (3 h)),normalized intracellular growth (time point: Tfinal (~6 h))
CC(C)(C)NC[C@H](O)c1ccc(O)c(CO)c1,0.963 ± 0.019,1.1 ± 0.06
CC(C)Nc1ncccn1,0.928 ± 0.053,1.05 ± 0.2
O=C(O)c1cc(-c2ccc(F)cc2F)ccc1O,1.04 ± 0.067,1.04 ± 0.077
CCCCNC(=O)NS(=O)(=O)c1ccc(C)cc1,1.05 ± 0.025,1.07 ± 0.042
CCOC(=O)OC(C)OC1=C(C(=O)Nc2ccccn2)N(C)S(=O)(=O)c2ccccc21 (stereo not given),1.02 ± 0.014,1.09 ± 0.13
CC(=O)[C@H]1CC[C@H]2[C@@H]3C[C@H](C)C4=CC(=O)CC[C@]4(C)[C@H]3[C@@H](O)C[C@]12C,0.767 ± 0.058,0.814 ± 0.2
CCN1CC(CCN2CCOCC2)C(c2ccccc2)(c2ccccc2)C1=O (stereo not given),0.939 ± 0.066,1.04 ± 0.15
CC(=O)OCC(=O)[C@@]12N=C(C)O[C@@H]1C[C@H]1[C@@H]3CCC4=CC(=O)C=C[C@]4(C)[C@H]3[C@@H](O)C[C@@]12C,0.991 ± 0.028,1.06 ± 0.041
CC(=O)Nc1ccc(CC(=O)O)cc1,0.918 ± 0.05,1.19 ± 0.1
Cc1nc2n(c(=O)c1CCN1CCC(c3noc4cc(F)ccc34)CC1)CCCC2,1.101 ± 0.0088,0.922 ± 0.051
CNCCC(Oc1ccc(C(F)(F)F)cc1)c1ccccc1 (stereo not given),0.851 ± 0.035,0.896 ± 0.47
CC[C@H]1OC(=O)[C@H](C)C(=O)[C@H](C)[C@@H](O[C@@H]2O[C@H](C)C[C@H](N(C)C)[C@H]2O)[C@](C)(OC)C[C@@H](C)C(=O)[C@H](C)[C@H]2N(CCCCn3cnc(-c4cccnc4)c3)C(=O)O[C@]12C,1.01 ± 0.086,0.0132 ± 0.0042
CCCCOc1cc(C(=O)NCCN(CC)CC)c2ccccc2n1,1.08 ± 0.11,0.969 ± 0.1
O=C1CCc2cc(OCCCCc3nnnn3C3CCCCC3)ccc2N1,1.01 ± 0.024,0.905 ± 0.25
N#C[C@@H]1C[C@@H]2C[C@@H]2N1C(=O)[C@@H](N)C12CC3CC(CC(O)(C3)C1)C2,1.02 ± 0.039,1.04 ± 0.049
CCS(=O)(=O)CCn1c([N+](=O)[O-])cnc1C,0.977 ± 0.068,0.989 ± 0.033
CCC1=C(C)CN(C(=O)NCCc2ccc(S(=O)(=O)NC(=O)N[C@H]3CC[C@H](C)CC3)cc2)C1=O,1.03 ± 0.028,1.1 ± 0.095
CC1(C)NC(=O)N(c2ccc([N+](=O)[O-])c(C(F)(F)F)c2)C1=O,1.03 ± 0.022,1.07 ± 0.062
CCCCCCc1ccc(O)cc1O,1 ± 0.054,0.982 ± 0.036
COC(=O)[C@@H]1[C@H]2C[C@H]3c4[nH]c5ccccc5c4CCN3C[C@@H]2CC[C@@H]1O,0.992 ± 0.016,1.02 ± 0.094
C[C@]12C=CC(=O)C=C1CC[C@@H]1[C@@H]2[C@@H](O)C[C@@]2(C)[C@H]1CC[C@]2(O)C(=O)COC(=O)CCC(=O)O,1.02 ± 0.016,0.815 ± 0.11
